Test system: lung adenocarcinoma cell lines (H358, H1650, H1975, and HCC4006)
Assay: Internalization of PEG-BCT-100 by immunocytochemistry using anti-PEG-antibodies
Format: cell-based

B1: PEG-BCT-100: pegylated recombinant human arginase I (SEQ ID NO.1, or SEQ ID NO.3 with six histidines), about 6-12 PEG molecules per arginase (protein, UniProt P05089 1-322, looked up)
Arginase-1: MSAKSRTIGIIGAPFSKGQPRGGVEEGPTVLRKAGLLEKLKEQECDVKDYGDLPFADIPNDSPFQIVKNPRSVGKASEQLAGKVAEVKKNGRISLVLGGDHSLAIGSISGHARVHPDLGVIWVDAHTDINTPLTTTSGNLHGQPVSFLLKELKGKIPDVPGFSWVTPCISAKDIVYIGLRDVDPGEHYILKTLGIKYFSMTEVDRLGIGKVMEETLSYLLGRKKRPIHLSFDVDGLDPSFTPATGTPVVGGLTYREGLYITEEIYKTGLLSGLDIMEVNPSLGKTPEEVTRTVNTAVAITLACFGLAREGNHKPIDYLNPPK
modifications: PEG, about 6-12 per arginase; optional His6 tag
internalization (penetration into cells) (H1975, H1650, and HCC4006 cells, at IC50 level): able to penetrate | internalization (penetration into cells) (all examined lung adenocarcinoma cells, at 0.1 μg/μl): able to penetrate into all examined lung adenocarcinoma cells | internalization (cytosolic staining by anti-PEG antibody) (examined cell lines, IC50 concentrations and 0.1 μg/μl): able to penetrate the cells

Reference: patent publication US20180271960A1, “METHOD TO TREAT CANCER USING ARGININE DELPETOR AND ORNITHINE DECARBOXYLASE (ODC) INHIBITOR” (Bio-Cancer Treatment International Ltd., priority 2015, published 2018)
